From publication PMC6987225
The exact form of at least one protein or probe is not confirmed. At least one verdict was read from the data and is not stated in words by the source.

Target: EngHD (Engrailed homeodomain, DNA-binding domain) (Drosophila melanogaster) (UniProt P02836)
Test: FCS
Conditions: Kd only plotted, between 38 bp and 600 bp trend, ~1 nM Alexa 488-EngHD with unlabeled dsDNA titrated, ionic strength 50 mM (NaCl) unless stated, recombinant protein

“CTCGAGTTCTTAACCAAATTGAATTCTCGCCACCGATCGTGTTCGCCCGAAATAAATCTGGCCGAAAAGCCATCAATCTACAATCTAACTGTGCCTCGGTTTATACCTCCAACTGCCGTTCACCGAAAAGGCCGACAGTTTTCCGACTAATTGTTCTTAACCAAATTGAATTCTCGCCACCGATCGTGTTCGCCCGAAATAAATCTGGCCGAAAAGCCATCAATCTACAATCTAACTGTGCCTCGGTTTATACCTCCAACTGCCGTTCACCGAAAAGGCCGACAGTTTTCCGACAAGCTT (double strand) [300 bp TAATTG]”: binds.
